# Results as given in PubChem BioAssay AID504834 (National Center for Advancing Translational Sciences (NCATS), 2011).
# The whole screen tested about 320,000 compounds, of which about 22,000 (6.9%) were called active. Inconclusive means that the source gave no clear call. Such entries were picked first, then a sample of the others. Calls come from the whole dose curve; as a rule, active = well fitted inhibition curve with a large enough effect; inconclusive = small, poorly fitted or top-dose-only effect, or another doubt; inactive = no such curve, though single readings can be large or run the other way. A potency beside an inconclusive call is a rough fit, not a confirmed value.
# Assay: Primary qHTS for delayed death inhibitors of the malarial parasite plastid, 96 hour incubation
# Conditions: P. falciparum luciferase reporter growth; series mostly up to 28.7 µM
# Summary of the method: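 P. falciparum expressing integrated firefly luciferase, in erythrocytes at 2% hematocrit, 0.05% parasitemia, incubated with compounds 96 h at 37 C, 5% CO2. Growth inhibition read as loss of luminescence; two-generation exposure targets delayed-death apicoplast inhibitors.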
# Potency is the fitted concentration of half-maximal effect.
row,Compound,Potency
1,O=C1C(Nc2ccccc2)=CC(c2ccc(O)cc2)N1c1ccccc1 (configuration not stated),"inconclusive: 18.5 µM [inhibitor, partial curve, poor fit]"
2,CCOc1ccc(/C=C(/NC(=O)c2ccccc2Cl)C(=O)O)cc1,"inconclusive: 10.4 µM [inhibitor, single point]"
3,CCOc1cccc(NC(=O)Cc2cccs2)c1,inactive
4,N=c1c2c3c(sc2ncn1N)CCCCC3,active: 3.7 µM
5,CCOc1ccc2c(c1)c1nnc(SCC(=O)N3CCCCC3C)nc1n2C (configuration not stated),"inconclusive: 18.5 µM [inhibitor, single point]"
6,CCOC(=O)N1CCN(C(=O)c2nn(C)c3c2CSc2ccccc2-3)CC1,inactive
7,O=C(COc1ccccc1)Nc1nnc(S(=O)(=O)N2CCCCCC2)s1,inactive
8,CCCCSc1nc(NCc2ccco2)c2c3c(sc2n1)COC(C)(C)C3,"inconclusive: 14.7 µM [inhibitor, single point]"
9,CCCCc1cc2c(c(NC(=O)CC)n1)c(=O)oc1ccccc12,"inconclusive: 0.465 µM [inhibitor, full curve]"
10,C=CCN(Cc1nc(-c2ccccc2)no1)C(=O)c1ccoc1C,"inconclusive: 10.4 µM [inhibitor, single point]"
11,O=C(N/N=C/c1c[nH]c2ccc(Br)cc12)c1ccn(Cc2ccc(Cl)cc2)n1,"inconclusive: 18.5 µM [inhibitor, single point]"
12,O=C(CC1NCCc2ccccc21)Nc1ccccc1Cl (configuration not stated),inactive
13,COc1ccccc1Nc1ccc(S(=O)(=O)N2CCCCC2)cc1[N+](=O)[O-],"inconclusive: 14.7 µM [inhibitor, partial curve]"
14,CCOc1ccc(C2C(C(=O)c3ccco3)=C(O)C(=O)N2CCCn2ccnc2)cc1OCC (configuration not stated),"inconclusive: 18.5 µM [inhibitor, single point]"
15,CCc1ccccc1Oc1coc2cc(O)ccc2c1=O,"inconclusive: 13.1 µM [inhibitor, single point]"
16,Cc1ccc(C)c(S(=O)(=O)N2CCC3(CC2)OCCN3S(=O)(=O)c2cccs2)c1,"inconclusive: 18.5 µM [inhibitor, single point]"
17,CCNC(=O)NC1(C(=O)N2CCC(Cc3ccccc3)CC2)CCCCC1,"inconclusive: 4.65 µM [inhibitor, partial curve]"
18,COc1ccc(C(c2nnnn2C2CCCC2)N2CCC(C(N)=O)CC2)c(OC)c1 (configuration not stated),"inconclusive: 0.0026 µM [inhibitor, full curve, poor fit]"
19,Cc1c(C)n(C(=O)CSc2nccn2C)c2ccccc12,"inconclusive: 0.828 µM [inhibitor, full curve, poor fit]"
20,Cc1ccc(/C=C/C(=O)OCC(=O)N2CC(=O)Nc3ccccc32)o1,"inconclusive: 18.5 µM [inhibitor, single point]"
21,O=C(Nc1nn[nH]n1)c1cccc(Oc2ccccc2)c1,inactive
22,COc1ccc(S(=O)(=O)n2ccc(-c3ccc(OCCN(C)c4ccccn4)cc3)n2)cc1,active: 10.4 µM
23,COC(=O)C1=CO[C@@H](C)[C@H]2CN3CCc4c([nH]c5ccccc45)[C@@H]3C[C@H]12,"inconclusive: 18.5 µM [inhibitor, single point]"
24,COc1ccccc1CNC(=O)CCn1c(=O)sc2ccccc21,"inconclusive: 3.7 µM [inhibitor, single point]"

# Looked up one by one from the list above, 6 records:
row,Compound,Potency
19,Cc1c(C)n(C(=O)CSc2nccn2C)c2ccccc12,"inconclusive: 0.828 µM [inhibitor, full curve, poor fit]"
6,CCOC(=O)N1CCN(C(=O)c2nn(C)c3c2CSc2ccccc2-3)CC1,inactive
20,Cc1ccc(/C=C/C(=O)OCC(=O)N2CC(=O)Nc3ccccc32)o1,"inconclusive: 18.5 µM [inhibitor, single point]"
11,O=C(N/N=C/c1c[nH]c2ccc(Br)cc12)c1ccn(Cc2ccc(Cl)cc2)n1,"inconclusive: 18.5 µM [inhibitor, single point]"
22,COc1ccc(S(=O)(=O)n2ccc(-c3ccc(OCCN(C)c4ccccn4)cc3)n2)cc1,active: 10.4 µM
14,CCOc1ccc(C2C(C(=O)c3ccco3)=C(O)C(=O)N2CCCn2ccnc2)cc1OCC (configuration not stated),"inconclusive: 18.5 µM [inhibitor, single point]"

# Additional entries

row,Compound,Potency
1,Cc1cc(OCCN2CCOCC2)ccc1C(C)C,inactive
2,COc1ccc(-c2nn(CCC(=O)O)cc2CCC(=O)O)cc1,inactive
3,O=C(COC(=O)C1C2CC3OC(=O)C1C3C2)Nc1cccc(Cl)c1 (configuration not stated),"inconclusive: 13.1 µM [inhibitor, single point]"
4,Cc1ccc(CN2CCSc3ccc(C(=O)NCCCN4CCOCC4)cc32)cc1,inactive
5,COc1ccc(CC(=O)NC(C)c2ccc3ccccc3c2)cc1 (configuration not stated),"inconclusive: 9.28 µM [inhibitor, partial curve, poor fit]"
6,Cc1ccc(CNC(=O)c2cncc(Br)c2)cc1,inactive
7,Cc1cc(C)n(C(=O)CCC(=O)NCc2ccccc2)n1,inactive
8,CNC(=S)N(CCc1c(C)[nH]c2ccccc12)Cc1cccnc1,"inconclusive: 7.38 µM [inhibitor, partial curve, poor fit]"
9,COc1ccc(-c2nc(CSCC(=O)NC3CCN(Cc4ccccc4)CC3)c(C)o2)cc1OC,active: 10.4 µM
10,CC(=O)OCC(=O)[C@@]12OC(C)(C)O[C@@H]1C[C@H]1[C@@H]3C[C@H](F)C4=CC(=O)C=C[C@]4(C)[C@@]3(F)[C@@H](O)C[C@@]12C,"inconclusive: 11.7 µM [inhibitor, partial curve, poor fit]"
11,COc1ccc(C2=NN(C(=O)c3ccccc3)C(c3ccc(OC)c(OC)c3)C2)c(O)c1 (configuration not stated),active: 10.4 µM
12,CCOc1ccc(C(CCc2ccccc2)NC(=O)c2ccccc2OC)cc1OCC (configuration not stated),"inconclusive: 3.7 µM [inhibitor, partial curve, poor fit]"
13,N=c1c2c(-c3ccccc3)c(-c3ccccc3)n(Cc3ccco3)c2ncn1Cc1ccccc1,active: 2.62 µM
14,CC1(C)CC(=O)C=C(N2CCCC2)C1,inactive
15,Fc1ccccc1CSc1nc2ncc(Br)cc2[nH]1,active: 13.1 µM
16,Oc1[nH]c(N=C2N=c3ccccc3=N2)c2ccccc12,active: 2.33 µM
17,COc1ccc(CCNC(=O)CC(c2ccccc2)c2cc(C)ccc2O)cc1OC (configuration not stated),inactive
18,COc1cccc(C(=O)OCCN2C(=O)c3ccccc3C2=O)c1OC,inactive
19,COc1ccccc1/C=N/NC(=O)c1ccc(=O)n(C)c1,inactive
20,O=C(CCNC(=O)c1ccc(Cl)cc1)Nc1ccccc1N1CCCC1,"inconclusive: 18.5 µM [inhibitor, single point]"
21,Cc1c(Cc2ccccc2)c(=O)oc2c(C)c(OC(C)C(=O)NCC3CCC(C(=O)O)CC3)ccc12 (configuration not stated),active: 13.1 µM
22,Cc1cc2c(NC(=O)Nc3ccc(C(C)(C)C)cc3)cccc2nn1,active: 11.7 µM
23,O=C(c1ccco1)N1CCN(S(=O)(=O)c2ccc(C3CCCCC3)cc2)CC1,"inconclusive: 10.4 µM [inhibitor, single point]"
24,CC(C)(CO)CN1CCC(n2nccc2NC(=O)C2CCCC2)CC1,"inconclusive: 18.5 µM [inhibitor, single point]"

row,Compound,Potency
1,Cc1cccc(NC(=O)C23CCC(C)(C(=O)O2)C3(C)C)c1 (configuration not stated),inactive
2,O=C1C(I)=CC(=C(c2cc(I)c(O)c(I)c2)c2ccccc2C(=O)O)C=C1I,inactive
3,Nc1nc2n(n1)C(=O)CC(c1ccc(Cl)cc1)N2 (configuration not stated),inactive
4,O=c1c2ccccc2nnn1CSc1nnc(COc2ccc(Cl)cc2)n1Cc1ccco1,inactive
5,COc1ccc(-c2noc(CCCC(=O)Nc3ccc(C(N)=O)cc3)n2)cc1OC,"inconclusive: 3.7 µM [inhibitor, partial curve, poor fit]"
6,CC(=O)N(/N=C/c1ccc(C)cc1)c1nc(CCl)cs1,inactive
7,C/C(=N\OCC(=O)Nn1c(=O)[nH]c2ccccc2c1=O)c1cccs1,"inconclusive: 1.04 µM [inhibitor, single point]"
8,CC1Oc2ccccc2N(CC(=O)NCCCN2CCOCC2)C1=O (configuration not stated),inactive
9,COC(=O)c1cnn(-c2ccc(C(=O)Nc3ccc(C(C)=O)cc3)cc2)c1N,"inconclusive: 0.233 µM [inhibitor, full curve, poor fit]"
10,COc1ccc(/C(C)=N/Nc2nncc3ccccc23)cc1,inactive
11,COc1cc(C2C3CN(C)CC=C3C(C#N)=C(N)C2(C#N)C#N)ccc1OC(C)C (configuration not stated),"inconclusive: 0.0657 µM [inhibitor, partial curve, poor fit]"
12,COc1ccccc1C(=O)N1CCN(c2nc3cc(C)c(C)cc3cc2C#N)CC1,active: 10.4 µM
13,CC1(C)Cc2cccc(C(=O)NC3CCN(Cc4ccccc4)CC3)c2O1,"inconclusive: 8.28 µM [inhibitor, partial curve, poor fit]"
14,O=C(CCc1ccccc1)n1nc(-c2ccco2)nc1SCc1ccccc1,"inconclusive: 9.28 µM [inhibitor, single point]"
15,O=C(Nc1nc2ccccc2s1)NC1CCCCC1,"inconclusive: 13.1 µM [inhibitor, partial curve]"
16,Cc1nn(CC2CCCCC2)c(N)c1-c1ccccc1,"inconclusive: 18.5 µM [inhibitor, single point]"
17,COc1ccc(NC(=O)c2cc(-c3cc(OC)c(OC)c(OC)c3)nc3ccccc23)c(OC)c1,active: 2.62 µM
18,CCOc1ccc(S(=O)(=O)N(CC(=O)N/N=C/c2cccs2)c2ccc(C)cc2)cc1,"inconclusive: 20.8 µM [inhibitor, single point]"
19,COC(=O)c1ccc(NC(C)=O)o1,inactive
20,Cc1cccc(Nc2nc(N)c([N+](=O)[O-])c(N3CC(C)CC(C)C3)n2)c1 (configuration not stated),"inconclusive: 18.5 µM [inhibitor, single point]"
21,CC(Sc1n[nH]c(N)n1)C(=O)Nc1cccc2ccccc12 (configuration not stated),"inconclusive: 11.7 µM [inhibitor, partial curve, poor fit]"
22,CC12CCC(C(=O)N(CSC(=S)N/N=C\c3ccccc3O)C1=O)C2(C)C (configuration not stated),"inconclusive: 11.7 µM [inhibitor, single point]"
23,CCOc1ccc(NS(=O)(=O)c2ccc(C(=O)NCc3cccnc3)cc2)cc1,"inconclusive: 26.2 µM [inhibitor, partial curve, poor fit]"
24,Cc1ccc(N(C(=O)Cn2nnc3ccccc32)C(C(=O)NCc2ccco2)c2cccnc2)cc1 (configuration not stated),"inconclusive: 0.0928 µM [inhibitor, full curve, poor fit]"
